The nature of the experiment: qHTS Assay for Lipid Storage Modulators in Drosophila S3 Cells.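 For cell number change: cells counted by Cell Tracker Red CMTPX staining in the red channel.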 As to conditions: BODIPY lipid droplet fluorescence, 18-24 h; for cell number change: measured here: cell count max response, cells fed with added oleic acid. Put shortly:
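Laser-scanning cytometry quantifies lipid droplet accumulation (500–530 nm total intensity; droplet/cell object ratio) in oleic acid-fed (400 uM added) Drosophila S3 cells treated with a concentration series. 20 uM Triacsin C defined 100% inhibition.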
(In general: qHTS replaces the single test concentration by a dilution series.)

Where [1] appears, read: measured here: lipid fluorescence (Fed channel) AC50, cells fed with added oleic acid.
The mark [2] stands for this setting: measured here: cell number channel AC50, cells fed with added oleic acid.

Molecules are shown by their SMILES. Some of the results follow. Further columns of the screen follow, without active or inactive calls. The list favours compounds with an active or inconclusive main result. Potencies come from curve fits of mixed quality, noted in brackets.

Take `CSCCC(NS(=O)(=O)c1ccccc1F)C(=O)NCC(C)(C)N1CCOCC1` (configuration not stated): the cell number change is 14.7%. For the same compound, the AC50 – broadly, the midpoint of the concentration-response curve, whichever way the signal moves – under setting [1] is 0.731 µM [falling, full curve].

`CSCc1ccc(C(=O)NC(C)c2cnn(-c3ccccn3)c2C)o1` (configuration not stated): under setting [1], the AC50 was 6.51 µM [rising, single point].

As for `CC(OC(=O)CN1C(=O)c2ccccc2C1=O)C(=O)NC1CCCC1` (configuration not stated), the cell number change stood at 1.28%. Besides, the concentration at half-maximal activity (AC50) under setting [1] is 10.3 µM [rising, partial curve].

For `CCN1C(=O)[C@@H]2[C@@H](c3ccc(-c4ccc(C(C)=O)cc4)c(OC)c3)N3CCC[C@@]3(C(=O)OC)[C@@H]2C1=O`, the cell number change was -15.8%. Further, the AC50 under setting [1] was 29.1 µM [falling, single point].

With `CCOc1ccc(NC(=O)CN(C)C(=O)Cc2c[nH]c3ccccc23)cc1OCC`, the cell number change was 0.455%. Moreover, the concentration at half-maximal activity (AC50) under setting [1] is 0.82 µM [rising, full curve, poor fit].

Regarding `O=C(NCc1nnnn1-c1ccc(F)cc1)c1ccc([N+](=O)[O-])o1`, the half-maximal activity concentration (AC50) under setting [2] is 6.51 µM [rising, single point].

For the compound `CC1(C)CCN2CCC(C)(C)c3c(O)ccc1c32`, the AC50 under setting [1] was 5.8 µM [falling, full curve, poor fit].

With `O=C(N/N=C/c1cc(Br)ccc1O)Nc1ccccc1`, the cell number change is -28.3%. Further, the half-maximal activity concentration (AC50) under setting [1] was 11.6 µM [falling, partial curve].

As to `CC(CCc1ccccc1)NC(=O)C(=O)NCCc1ccccc1` (configuration not stated), the cell number change came out at 10.2%. For the same compound, the half-maximal activity concentration (AC50) under setting [1] is 5.8 µM [rising, full curve].

As for `Cc1cc(N=Cc2c(O)n(-c3cccc(C(F)(F)F)c3)c(=O)c3ccccc23)no1`, the cell number change stood at 21.3%. Besides, under setting [1], the half-maximal activity concentration (AC50) was 29.1 µM [rising, single point].

For `CCCCn1c(-c2cc(Cl)ccc2OC)n[nH]c1=S`, the cell number change is -27.7%. Also, the AC50 under setting [1] was 0.651 µM [rising, partial curve, poor fit].

For `Cc1ccccc1OCC(=O)Nc1ccc2[nH]ncc2c1`, the cell number change is -5.49%. Further, the AC50 under setting [1] was 6.51 µM [rising, full curve].

With `COc1cc(Br)c(C(C)NC(=O)c2ccc(C)cc2)cc1OC` (configuration not stated), the cell number change was -13%.

Consider `Cc1ccc(S(=O)(=O)N2CCN=C2SCc2c(F)cccc2Cl)cc1`, for which the cell number change is -2.6%. In addition, the AC50 under setting [1] was 29.1 µM [falling, single point].

`Cc1cc(NC(=O)c2ccc(Cl)cc2)ccc1NC(=O)c1ccccc1Cl`: the AC50 under setting [1] was 0.411 µM [rising, single point].

Take `COc1ccc(Cl)cc1C(=O)Nc1nnn(C)n1`: the cell number change was -5.98%.

In the case of `NC(=O)C1CCN(C(=O)Cn2cccc2C(=O)c2ccccc2)CC1`, the cell number change was -31.7%. Under setting [2], the AC50 is 0.13 µM [falling, full curve, poor fit]. The half-maximal activity concentration (AC50) under setting [1] is 29.1 µM [falling, single point].

For the compound `CC(C)(C)c1cc(CN2CCCC(O)C2)c(O)c(C(C)(C)C)c1` (configuration not stated), the cell number change was -77.6%. The AC50 under setting [2] is 29.1 µM [falling, single point]. Also, the half-maximal activity concentration (AC50) under setting [1] was 29.1 µM [falling, single point].

In the case of `COc1cc(-c2c(-c3cccc(C)c3)oc3ccccc23)cc(OC)c1OC`, the cell number change was 20.7%. Further, under setting [1], the AC50 was 29.1 µM [rising, single point].

As for `CCCc1cc(C(=O)N2CCN(c3ccccc3C)CC2)cs1`, the cell number change is -17%. Moreover, the AC50 under setting [1] was 5.8 µM [rising, partial curve].

Turning to `COc1ccc(C(=O)c2c3ccccc3[n+]([O-])n2CCCN)cc1`, under setting [1], the AC50 is 25.9 µM [falling, partial curve, poor fit].

On to `CCC(C)NCCOc1ccc(Br)cc1` (configuration not stated), for which the cell number change is -6.41%. Further, the AC50 under setting [1] was 29.1 µM [falling, single point].

For the compound `COc1ccccc1N1CCN(C(=O)COc2cccc3ccccc23)CC1`, the cell number change is -12%. Besides, the AC50 under setting [1] is 5.8 µM [falling, single point].

As to `Cc1nc2cc(NC(=O)COc3ccccc3C#N)ccc2n1-c1ccccc1`, the cell number change came out at 30.8%. For the same compound, the concentration at half-maximal activity (AC50) under setting [2] is 1.64 µM [rising, full curve, poor fit]. In addition, the AC50 under setting [1] was 23.1 µM [rising, partial curve, poor fit].

Consider `COC(=O)C(CC(=O)c1ccc(Br)cc1)n1cccn1` (configuration not stated), for which the cell number change is -27.2%. The AC50 under setting [1] was 29.1 µM [falling, single point].

Regarding `COC(=O)CNC(=O)CN(c1ccc(OC)cc1OC)S(=O)(=O)c1ccccc1`, the cell number change is -30.4%. Further, the half-maximal activity concentration (AC50) under setting [2] was 1.64 µM [falling, partial curve].

As for `O=C(c1cc(-c2cccc(O)c2)on1)N1CCCCC1`, the cell number change is -7.37%. Further, the concentration at half-maximal activity (AC50) under setting [1] is 23.1 µM [falling, single point].

With `CCOC(=O)Nc1ccc2c(c1)N(C(=O)CN(CC)CC)c1ccccc1CC2`, the cell number change is -10.2%. Also, the half-maximal activity concentration (AC50) under setting [1] was 32.6 µM [rising, single point].

`Cn1c(SCc2cccc([N+](=O)[O-])c2)nc2ccccc2c1=O`: the cell number change was -22.2%. In addition, under setting [1], the AC50 is 18.4 µM [falling, single point].

For the compound `COc1ccc(O)c(/C=N/NC(=O)CN2CCS(=O)(=O)CC2)c1`, the cell number change was found to be 2.79%. Further, the AC50 under setting [1] is 10.3 µM [falling, single point].

Consider `Cc1ccc2cc3cc(C(=O)NCCCN4CC(C)CC(C)C4)oc3nc2c1` (configuration not stated), for which the cell number change turned out to be 15.8%.

With `CC(C)N(Cc1nc(-c2ccccc2)no1)C(=O)CN(C)S(=O)(=O)c1ccc(Br)cc1`, the cell number change was -30.3%. Besides, the half-maximal activity concentration (AC50) under setting [2] is 29.1 µM [falling, single point]. The half-maximal activity concentration (AC50) under setting [1] is 32.6 µM [falling, single point].

Turning to `O=C([C@@H]1CCCN1C(=O)c1cccs1)N1CCN(S(=O)(=O)c2ccccc2F)CC1`, the cell number change is 11.5%. Moreover, the AC50 under setting [1] was 6.51 µM [rising, partial curve, poor fit].

As for `Cn1c(N2CCC(C(N)=O)CC2)nc2c1c(=O)n(Cc1ccc(Cl)cc1)c(=O)n2C`, the cell number change is 14%. For the same compound, the concentration at half-maximal activity (AC50) under setting [1] is 2.91 µM [rising, partial curve].

On to `Cc1ccc(NC(=O)CCC(=O)N2CCC(c3ccccc3)=N2)cc1S(=O)(=O)N1CCCCC1`, for which the cell number change is -64.7%. Further, under setting [2], the AC50 is 20.6 µM [falling, partial curve].

As to `COc1cc(SC#N)ccc1N=Cc1c(C)[nH]n(-c2ccc(C)cc2C)c1=O`, the cell number change is -41.8%. Also, under setting [2], the concentration at half-maximal activity (AC50) is 32.6 µM [falling, single point].

Turning to `O=C(O)C/C(=C\c1ccc2c(c1)OCO2)c1nc2ccccc2s1`, the cell number change is -7.69%. Further, the AC50 under setting [1] is 29.1 µM [rising, single point].

On to `COC(=O)c1[nH]c2ccc(C)cc2c1NC(=O)CN1CCc2cc(OC)c(OC)cc2C1`, for which the cell number change is -17%.

`COc1ccc(CC(=O)Nc2ccccc2NC(=O)Cc2ccc(OC)cc2)cc1`: under setting [1], the concentration at half-maximal activity (AC50) was 0.13 µM [rising, full curve, poor fit].

Values taken from PubChem BioAssay AID2685 (National Center for Advancing Translational Sciences (NCATS), 2010).
